{
  "source": "paper PMC5552277",
  "tested_on": "TFAM (WT) + POLRMT + TFB2M",
  "experiment": "DNase I footprinting",
  "conditions": "POLRMT/TFB2M 1 µM each, WT reference for CTΔ26; Footprinting: 10 mM HEPES pH 7.5, 10 mM MgCl2, 100 mM NaCl, 1 mM TCEP, 0.1 mg/mL BSA, 32°C; recombinant protein; label: 5'-32P on HSP1 or LSP template strand; probe letters rebuilt from the primers and the genome",
  "note": "Construct, isoform or probe ends are uncertain for at least one entry. At least one verdict rests on a figure or table, not on a statement of the authors.",
  "data": [
    {"sequence": "ATTGCTTTGAGGAGGTAAGCTACATAAACTGTGGGGGGTGTCTTTGGGGTTTGGTTGGTTCGGGGTATGGGGTTAGCAGCGGTGTGTGTGTGCTGGGTAGGATGGGCGGGGGTTGTATTGATGAGATTAGTAGTATGGGAGTGGGAGGGGAAAATAATGTGTTAGTTGGGGGGTGACTGTTAAAAGTGCATACCGCCAAAAGATAAAATTTGAAATCTGGTTAGGCTGGTGTT (double strand) [dual promoter template (DPT-WT)]", "values": [
      {"measurement": "binding result", "value": "binds"}
    ]}
  ]
}
